Laboratory results taken from the supplement of paper PMC10849652.
This is one part of the list.

Protein sequences, listed by entry. Tags and fused reporters are not part of them. Lines headed by an entry give the natural chain unless they say otherwise; changes in a name come on top.
UniProt Q9Y3B8: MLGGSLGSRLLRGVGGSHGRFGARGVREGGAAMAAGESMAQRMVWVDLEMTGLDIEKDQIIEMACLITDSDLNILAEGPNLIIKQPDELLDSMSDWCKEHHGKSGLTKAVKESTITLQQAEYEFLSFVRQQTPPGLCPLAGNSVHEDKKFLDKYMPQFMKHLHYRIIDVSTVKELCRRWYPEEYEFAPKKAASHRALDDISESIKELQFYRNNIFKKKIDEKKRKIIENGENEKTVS
UniProt P40937, whole entry, looked up: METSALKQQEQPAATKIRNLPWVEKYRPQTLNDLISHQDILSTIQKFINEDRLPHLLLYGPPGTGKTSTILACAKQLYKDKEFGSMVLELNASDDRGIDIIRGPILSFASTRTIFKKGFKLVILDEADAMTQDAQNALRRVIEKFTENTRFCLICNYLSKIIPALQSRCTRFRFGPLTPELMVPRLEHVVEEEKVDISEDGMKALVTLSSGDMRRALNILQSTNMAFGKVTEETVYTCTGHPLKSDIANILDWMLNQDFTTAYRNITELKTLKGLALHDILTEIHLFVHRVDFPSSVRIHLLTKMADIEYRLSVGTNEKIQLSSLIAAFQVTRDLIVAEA
UniProt Q8WWW0: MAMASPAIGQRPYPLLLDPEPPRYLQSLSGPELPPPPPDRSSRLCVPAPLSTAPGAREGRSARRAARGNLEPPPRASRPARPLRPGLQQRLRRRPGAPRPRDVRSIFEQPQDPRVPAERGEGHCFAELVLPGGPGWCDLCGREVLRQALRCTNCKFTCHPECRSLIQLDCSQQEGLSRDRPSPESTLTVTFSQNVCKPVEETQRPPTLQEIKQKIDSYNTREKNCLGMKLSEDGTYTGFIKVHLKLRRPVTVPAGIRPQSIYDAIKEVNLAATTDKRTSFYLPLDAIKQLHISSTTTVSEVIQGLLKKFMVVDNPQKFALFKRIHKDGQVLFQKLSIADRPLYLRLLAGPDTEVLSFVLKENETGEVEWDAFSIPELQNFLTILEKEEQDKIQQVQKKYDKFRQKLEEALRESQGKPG
UniProt P40938, whole entry, looked up: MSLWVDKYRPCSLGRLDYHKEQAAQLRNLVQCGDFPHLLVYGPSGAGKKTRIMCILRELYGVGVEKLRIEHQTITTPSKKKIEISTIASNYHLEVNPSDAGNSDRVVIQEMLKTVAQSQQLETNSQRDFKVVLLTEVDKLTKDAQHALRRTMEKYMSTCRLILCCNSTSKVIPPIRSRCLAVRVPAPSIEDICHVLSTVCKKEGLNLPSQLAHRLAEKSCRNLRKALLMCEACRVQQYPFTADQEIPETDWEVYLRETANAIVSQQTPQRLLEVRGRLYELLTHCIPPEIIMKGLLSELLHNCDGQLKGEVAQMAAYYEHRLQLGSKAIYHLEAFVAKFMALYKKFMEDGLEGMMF
UniProt Q6JBY9, whole entry, looked up: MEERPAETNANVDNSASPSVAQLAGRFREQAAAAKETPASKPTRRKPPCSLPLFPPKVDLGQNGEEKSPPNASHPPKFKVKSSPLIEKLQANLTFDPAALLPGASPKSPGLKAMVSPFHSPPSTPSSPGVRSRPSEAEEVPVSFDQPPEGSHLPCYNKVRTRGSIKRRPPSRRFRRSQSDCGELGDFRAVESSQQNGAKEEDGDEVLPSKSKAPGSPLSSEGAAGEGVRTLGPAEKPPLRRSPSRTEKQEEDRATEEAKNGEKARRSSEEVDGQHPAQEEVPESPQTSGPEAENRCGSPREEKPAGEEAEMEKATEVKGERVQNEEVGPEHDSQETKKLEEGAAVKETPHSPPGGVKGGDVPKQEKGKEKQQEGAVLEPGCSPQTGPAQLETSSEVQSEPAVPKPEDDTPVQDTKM
UniProt Q2KHR2: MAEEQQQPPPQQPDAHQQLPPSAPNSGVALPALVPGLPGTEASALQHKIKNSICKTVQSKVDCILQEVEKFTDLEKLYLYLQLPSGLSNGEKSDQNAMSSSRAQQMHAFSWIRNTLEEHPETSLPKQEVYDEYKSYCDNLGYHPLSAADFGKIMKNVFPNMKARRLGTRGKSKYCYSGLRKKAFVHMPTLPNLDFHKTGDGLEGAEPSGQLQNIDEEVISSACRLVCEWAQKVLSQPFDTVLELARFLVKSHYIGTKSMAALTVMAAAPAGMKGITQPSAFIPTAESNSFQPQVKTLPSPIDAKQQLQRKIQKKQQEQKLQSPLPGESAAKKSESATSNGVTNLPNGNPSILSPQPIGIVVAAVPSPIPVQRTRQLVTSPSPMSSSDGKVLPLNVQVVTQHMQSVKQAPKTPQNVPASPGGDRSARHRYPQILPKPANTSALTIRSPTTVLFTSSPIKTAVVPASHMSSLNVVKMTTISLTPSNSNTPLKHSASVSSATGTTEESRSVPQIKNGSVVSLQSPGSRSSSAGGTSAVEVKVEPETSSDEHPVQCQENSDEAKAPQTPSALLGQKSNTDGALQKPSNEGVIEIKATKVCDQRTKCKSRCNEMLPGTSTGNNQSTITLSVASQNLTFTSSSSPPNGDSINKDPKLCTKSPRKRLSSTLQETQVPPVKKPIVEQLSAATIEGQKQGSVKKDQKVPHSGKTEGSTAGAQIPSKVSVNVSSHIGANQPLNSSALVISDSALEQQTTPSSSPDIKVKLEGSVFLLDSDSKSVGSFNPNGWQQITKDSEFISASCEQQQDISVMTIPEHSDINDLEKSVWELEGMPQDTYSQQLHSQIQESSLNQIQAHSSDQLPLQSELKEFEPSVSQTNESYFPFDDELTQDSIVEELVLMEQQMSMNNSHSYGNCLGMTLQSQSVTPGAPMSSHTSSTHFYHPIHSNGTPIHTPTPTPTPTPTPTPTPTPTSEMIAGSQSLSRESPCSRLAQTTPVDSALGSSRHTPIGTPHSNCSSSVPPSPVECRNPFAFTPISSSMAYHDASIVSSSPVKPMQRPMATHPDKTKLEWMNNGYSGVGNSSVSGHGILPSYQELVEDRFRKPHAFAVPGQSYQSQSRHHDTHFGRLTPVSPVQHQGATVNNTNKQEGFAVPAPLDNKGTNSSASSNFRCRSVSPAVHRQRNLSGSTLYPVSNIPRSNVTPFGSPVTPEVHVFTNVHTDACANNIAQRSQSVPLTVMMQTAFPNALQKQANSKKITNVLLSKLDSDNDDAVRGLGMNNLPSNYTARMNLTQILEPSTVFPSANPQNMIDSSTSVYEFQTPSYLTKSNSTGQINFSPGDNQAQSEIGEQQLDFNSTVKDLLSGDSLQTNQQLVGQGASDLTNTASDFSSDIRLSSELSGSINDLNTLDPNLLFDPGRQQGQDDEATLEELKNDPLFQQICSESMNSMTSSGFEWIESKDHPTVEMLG
UniProt O00287: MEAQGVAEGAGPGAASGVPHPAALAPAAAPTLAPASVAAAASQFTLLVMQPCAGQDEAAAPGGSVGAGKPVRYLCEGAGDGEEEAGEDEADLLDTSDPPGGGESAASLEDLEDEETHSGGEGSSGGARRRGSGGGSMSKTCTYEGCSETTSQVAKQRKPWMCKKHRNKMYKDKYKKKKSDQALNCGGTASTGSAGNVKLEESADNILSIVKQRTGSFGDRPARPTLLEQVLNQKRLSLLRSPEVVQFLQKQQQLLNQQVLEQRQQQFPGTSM
UniProt P98179: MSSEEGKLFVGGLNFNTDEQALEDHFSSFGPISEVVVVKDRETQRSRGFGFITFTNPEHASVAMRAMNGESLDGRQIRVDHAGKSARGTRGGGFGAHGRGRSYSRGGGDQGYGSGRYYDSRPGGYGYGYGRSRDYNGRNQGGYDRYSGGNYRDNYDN
UniProt Q06330: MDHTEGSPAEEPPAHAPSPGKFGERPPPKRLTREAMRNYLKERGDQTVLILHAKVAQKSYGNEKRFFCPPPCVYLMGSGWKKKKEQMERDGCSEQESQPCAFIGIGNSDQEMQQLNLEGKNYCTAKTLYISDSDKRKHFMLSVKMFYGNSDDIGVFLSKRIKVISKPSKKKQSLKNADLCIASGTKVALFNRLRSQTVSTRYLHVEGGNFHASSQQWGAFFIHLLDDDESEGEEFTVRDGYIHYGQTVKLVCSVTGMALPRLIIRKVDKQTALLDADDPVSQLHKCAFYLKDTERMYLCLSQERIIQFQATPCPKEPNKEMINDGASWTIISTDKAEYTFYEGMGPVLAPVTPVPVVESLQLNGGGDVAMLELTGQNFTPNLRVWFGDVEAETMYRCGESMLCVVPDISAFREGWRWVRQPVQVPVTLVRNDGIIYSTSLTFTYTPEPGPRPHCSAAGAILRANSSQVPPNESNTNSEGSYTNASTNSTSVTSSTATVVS
UniProt Q8TAC1: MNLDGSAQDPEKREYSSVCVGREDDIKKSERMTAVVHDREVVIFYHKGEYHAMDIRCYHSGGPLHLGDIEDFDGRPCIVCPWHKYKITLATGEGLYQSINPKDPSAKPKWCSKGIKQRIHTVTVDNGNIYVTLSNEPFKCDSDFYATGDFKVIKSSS
UniProt P35251: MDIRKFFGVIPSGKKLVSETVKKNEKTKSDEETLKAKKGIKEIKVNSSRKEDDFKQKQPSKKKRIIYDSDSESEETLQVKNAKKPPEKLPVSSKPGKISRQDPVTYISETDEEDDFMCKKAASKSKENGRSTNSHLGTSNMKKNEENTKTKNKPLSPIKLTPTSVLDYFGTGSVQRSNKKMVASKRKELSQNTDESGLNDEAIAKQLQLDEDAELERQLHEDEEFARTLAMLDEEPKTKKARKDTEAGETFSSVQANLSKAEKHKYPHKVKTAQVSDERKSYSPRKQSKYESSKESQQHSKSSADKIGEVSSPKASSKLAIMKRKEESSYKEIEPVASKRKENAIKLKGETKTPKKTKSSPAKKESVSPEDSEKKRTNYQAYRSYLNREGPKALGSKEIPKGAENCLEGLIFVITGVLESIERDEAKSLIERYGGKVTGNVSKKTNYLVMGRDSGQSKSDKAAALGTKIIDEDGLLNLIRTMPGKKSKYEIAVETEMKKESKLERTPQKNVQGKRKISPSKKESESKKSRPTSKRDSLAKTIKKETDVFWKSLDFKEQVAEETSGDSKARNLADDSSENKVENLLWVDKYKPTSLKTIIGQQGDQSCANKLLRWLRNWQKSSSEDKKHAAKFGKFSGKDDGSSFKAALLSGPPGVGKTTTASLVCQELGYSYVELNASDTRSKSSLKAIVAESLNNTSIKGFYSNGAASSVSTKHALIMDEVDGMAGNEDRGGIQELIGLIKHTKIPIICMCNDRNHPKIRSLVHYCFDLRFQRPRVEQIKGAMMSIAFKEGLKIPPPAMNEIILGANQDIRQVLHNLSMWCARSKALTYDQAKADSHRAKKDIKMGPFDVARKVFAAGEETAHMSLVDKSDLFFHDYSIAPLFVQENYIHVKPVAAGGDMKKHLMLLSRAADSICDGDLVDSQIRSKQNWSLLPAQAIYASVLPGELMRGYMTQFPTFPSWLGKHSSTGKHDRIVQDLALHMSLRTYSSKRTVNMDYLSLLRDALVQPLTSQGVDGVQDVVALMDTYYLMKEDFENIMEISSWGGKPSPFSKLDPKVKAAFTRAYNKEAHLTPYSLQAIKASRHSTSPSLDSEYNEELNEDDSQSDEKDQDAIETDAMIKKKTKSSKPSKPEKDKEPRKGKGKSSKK
UniProt Q8WZ73: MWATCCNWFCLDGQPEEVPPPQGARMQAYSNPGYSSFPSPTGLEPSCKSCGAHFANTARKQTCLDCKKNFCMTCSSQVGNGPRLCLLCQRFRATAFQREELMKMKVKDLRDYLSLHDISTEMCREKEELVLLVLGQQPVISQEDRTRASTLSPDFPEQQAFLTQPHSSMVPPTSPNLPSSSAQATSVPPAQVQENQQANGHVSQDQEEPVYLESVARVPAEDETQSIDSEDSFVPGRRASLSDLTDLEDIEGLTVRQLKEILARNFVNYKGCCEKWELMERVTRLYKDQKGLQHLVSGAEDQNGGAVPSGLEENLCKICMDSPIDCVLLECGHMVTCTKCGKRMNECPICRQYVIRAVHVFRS
UniProt P51606: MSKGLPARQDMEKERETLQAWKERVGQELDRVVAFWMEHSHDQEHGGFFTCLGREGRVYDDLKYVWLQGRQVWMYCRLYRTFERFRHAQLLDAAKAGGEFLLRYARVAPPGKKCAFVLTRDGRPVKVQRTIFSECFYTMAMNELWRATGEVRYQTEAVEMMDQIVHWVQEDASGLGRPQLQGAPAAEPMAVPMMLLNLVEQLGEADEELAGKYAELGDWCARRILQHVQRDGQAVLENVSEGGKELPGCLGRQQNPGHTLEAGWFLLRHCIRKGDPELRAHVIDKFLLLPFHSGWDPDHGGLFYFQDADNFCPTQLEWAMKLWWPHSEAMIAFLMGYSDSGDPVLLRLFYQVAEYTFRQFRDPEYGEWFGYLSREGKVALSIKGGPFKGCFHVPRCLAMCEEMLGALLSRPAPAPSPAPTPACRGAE

Columns and labels:
Experiment in all cases: log2 fold change, soluble protein after heating vs DMSO (PISA); higher = thermal stabilisation; K562 lysate, 10 uM; active = over 0.2 and 3.5 SD of the protein, either way, in both replicates (recomputed)
[1] = compound: CCCS(=O)(=O)Nc1ccc(F)c(C(=O)c2c[nH]c3ncc(-c4ccc(Cl)cc4)cc23)c1F [vemurafenib]
How it was run: (§1)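 A 30 min treatment with 10 μM compound was applied to crude K562 extract at 1 mg/mL protein in PBS pH 7.4 with 1 mM MgCl2. Heating for 3 min spanned 48°C-58°C, after which aliquots were pooled, adjusted to 0.5% NP-40 at 4°C and spun at 21,000xg for 90 min. TMTpro 16plex LC-MS/MS of the supernatant, with channel sums equalised, gave values recorded as log-two fold change in thermal stability against solvent controls, from duplicates.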

[2] = compound: CCCS(=O)(=O)Nc1ccc(F)c(C(=O)c2c[nH]c3ncc(Cl)cc23)c1F
How it was run: as §1

[3] = compound: CCN(CCCOc1ccc2c(Nc3cc(CC(=O)Nc4cccc(F)c4)[nH]n3)ncnc2c1)CCOP(=O)(O)O [barasertib]
How it was run: as §1

[4] = compound: CC[C@@H]1C(=O)N(C)c2cnc(Nc3ccc(C(=O)NC4CCN(C)CC4)cc3OC)nc2N1C1CCCC1
How it was run: as §1

[5] = compound: CC[C@@H]1C(=O)N(C)c2cnc(Nc3ccc(C(=O)N[C@H]4CC[C@H](N5CCN(CC6CC6)CC5)CC4)cc3OC)nc2N1C(C)C [volasertib]
How it was run: as §1

[6] = compound: CCn1c(C(=O)N(C2CC2)C2CC2)cc2c3c(ncn3C)c(Nc3cc(C)n(C)n3)nc21
How it was run: as §1

[7] = compound: CCn1cc(-c2ccnc3[nH]c(-c4cccc(CN(C)C)c4)cc23)c(-c2ccc(NC(=O)N(C)C)cc2)n1
How it was run: as §1

[8] = compound: CN1CCC(CNc2ccc3ncc(-c4cccc(OC(F)(F)F)c4)n3n2)CC1
How it was run: as §1

[9] = compound: CN1CCN(CCOc2cc(OC3CCOCC3)c3c(Nc4c(Cl)ccc5c4OCO5)ncnc3c2)CC1 [saracatinib]
How it was run: as §1

[10] = compound: CN1CCN(c2nc(C3=C(c4c[nH]c5ccccc45)C(=O)NC3=O)c3ccccc3n2)CC1 [sotrastaurin]
How it was run: as §1

Measured: log2 fold change

REXO2 (UniProt Q9Y3B8)
inactive: [1] 0.003 | [2] -0.039 | [3] -0.029 | [4] -0.006 | [5] 0.017 | [6] -0.012 | [7] 0.077 | [8] -0.02 | [9] -0.001 | [10] -0.011

RFC5 (UniProt P40937)
inactive: [1] 0.034 | [2] -0.003 | [3] -0.017 | [4] -0.039 | [5] -0.079 | [6] 0.022 | [7] 0.137 | [8] 0.005 | [9] 0.008 | [10] 0.043

RBM8A (UniProt Q9Y5S9)
inactive: [1] -0.086 | [2] -0.045 | [3] 0.027 | [4] -0.091 | [5] -0.016 | [6] 0.047 | [7] 0.35 | [8] -0.198 | [9] -0.043 | [10] 0.047

REPS1 (UniProt Q96D71)
inactive: [1] -0.018 | [2] 0.033 | [3] 0.019 | [4] 0.054 | [5] -0.03 | [6] -0.011 | [7] -0.086 | [8] 0.009 | [9] 0.008 | [10] 0.001

RASSF5 (UniProt Q8WWW0)
inactive: [1] 0.032 | [2] 0.043 | [3] 0.029 | [4] 0.047 | [5] -0.052 | [6] -0.062 | [7] 0 | [8] 0.225 | [9] -0.008 | [10] 0.019

RFC3 (UniProt P40938)
inactive: [1] 0.021 | [2] 0.025 | [3] 0.046 | [4] -0.033 | [5] -0.065 | [6] 0.013 | [7] 0.133 | [8] 0.001 | [9] 0.001 | [10] 0.039

RBM14 (UniProt Q96PK6)
inactive: [1] -0.049 | [2] 0.062 | [3] -0.016 | [4] -0.042 | [5] -0.026 | [6] 0.086 | [7] 0.064 | [8] 0.039 | [9] -0.002 | [10] -0.071

RCSD1 (UniProt Q6JBY9)
inactive: [1] 0.022 | [2] 0.003 | [3] -0.024 | [4] 0.05 | [5] 0.02 | [6] -0.028 | [7] 0.003 | [8] 0.005 | [9] -0.007 | [10] 0.035

RFX7 (UniProt Q2KHR2)
inactive: [1] 0.107 | [2] -0.079 | [3] 0.092 | [4] 0.011 | [5] -0.067 | [6] -0.046 | [7] 0.174 | [8] 0.007 | [9] -0.001 | [10] -0.027

RCC1 isoform 2 (UniProt P18754)
inactive: [1] 0.049 | [2] 0.018 | [3] -0.008 | [4] -0.114 | [5] -0.066 | [6] 0.027 | [7] -0.105 | [8] -0.046 | [9] -0.021 | [10] 0.001

RGPD5 (UniProt Q99666)
inactive: [1] -0.098 | [2] 0.032 | [3] 0.052 | [4] 0.074 | [5] 0.046 | [6] 0.042 | [7] 0.701 | [8] -0.024 | [9] 0.012 | [10] 0.009

RFXAP (UniProt O00287)
inactive: [1] -0.02 | [2] -0.044 | [3] 0.036 | [4] 0.095 | [5] 0.003 | [6] -0.013 | [7] 0.47 | [8] 0.036 | [9] -0.024 | [10] 0.058

REEP4 (UniProt Q9H6H4)
inactive: [1] 0.058 | [2] 0.008 | [3] -0.073 | [4] 0.007 | [5] -0.037 | [6] 0.011 | [7] 0 | [8] -0.115 | [9] 0.036 | [10] -0.053

RHEB (UniProt Q15382)
inactive: [1] -0.013 | [2] -0.003 | [3] 0.037 | [4] -0.164 | [5] -0.06 | [6] 0.047 | [7] -0.107 | [8] 0.081 | [9] 0.009 | [10] 0.044

RELCH isoform 2 (UniProt Q9P260)
inactive: [1] 0.053 | [2] 0.009 | [3] 0.025 | [4] 0.044 | [5] -0.044 | [6] 0.066 | [7] 0.001 | [8] -0.06 | [9] 0.026 | [10] 0.015

RERE (UniProt Q9P2R6)
inactive: [1] 0.296 | [2] 0.051 | [3] 0.065 | [4] -0.065 | [5] -0.057 | [6] 0.039 | [7] -0.31 | [8] 0.212 | [9] 0.057 | [10] 0.035

RBM3 (UniProt P98179)
inactive: [1] -0.032 | [2] -0.011 | [3] -0.105 | [4] -0.078 | [5] -0.007 | [6] 0.076 | [7] 0.059 | [8] -0.01 | [9] -0.008 | [10] 0.071

RBM42 (UniProt Q9BTD8)
inactive: [1] -0.029 | [2] 0.027 | [3] -0.037 | [4] 0.076 | [5] -0.014 | [6] -0.006 | [7] 0.004 | [8] -0.002 | [9] 0.039 | [10] -0.009

RFX5 (UniProt P48382)
inactive: [1] -0.041 | [2] 0.027 | [3] 0.044 | [4] -0.01 | [5] -0.018 | [6] -0.025 | [7] 0.065 | [8] -0.014 | [9] -0.057 | [10] -0.045

RBPJ (UniProt Q06330)
inactive: [1] -0.03 | [2] -0.007 | [3] 0.008 | [4] 0.046 | [5] 0.004 | [6] 0 | [7] -0.011 | [8] 0.017 | [9] -0.025 | [10] 0.009

RFESD isoform 2 (UniProt Q8TAC1)
inactive: [1] 0.043 | [2] 0.03 | [3] -0.022 | [4] 0.024 | [5] -0.002 | [6] -0.004 | [7] 0.029 | [8] 0.032 | [9] 0.027 | [10] -0.071

RFC1 (UniProt P35251)
inactive: [1] -0.012 | [2] -0.019 | [3] 0.007 | [4] 0.059 | [5] 0.018 | [6] 0.022 | [7] 0.107 | [8] -0.058 | [9] -0.054 | [10] -0.011

RBM39 (UniProt Q14498)
inactive: [1] 0.034 | [2] 0.057 | [3] 0.015 | [4] -0.096 | [5] -0.008 | [6] -0.005 | [7] 0.043 | [8] -0.054 | [9] -0.005 | [10] 0.007

RELA (UniProt Q04206)
inactive: [1] 0.011 | [2] 0.048 | [3] 0.018 | [4] -0.009 | [5] -0.057 | [6] 0.063 | [7] -0.011 | [8] -0.024 | [9] -0.007 | [10] -0.05

2 successive entries already listed:
RFC1 (UniProt P35251)
inactive: [1] -0.012 | [2] -0.019 | [3] 0.007 | [4] 0.059 | [5] 0.018 | [6] 0.022 | [7] 0.107 | [8] -0.058 | [9] -0.054 | [10] -0.011

RBM39 (UniProt Q14498)
inactive: [1] 0.034 | [2] 0.057 | [3] 0.015 | [4] -0.096 | [5] -0.008 | [6] -0.005 | [7] 0.043 | [8] -0.054 | [9] -0.005 | [10] 0.007

Remaining list, next part.

RCOR1 (UniProt Q9UKL0)
inactive: [1] 0.028 | [2] -0.03 | [3] 0.108 | [4] -0.008 | [5] 0.003 | [6] -0.001 | [7] -0.071 | [8] 0.017 | [9] 0.001 | [10] 0.004

RC3H1 (UniProt Q5TC82)
inactive: [1] 0.024 | [2] -0.023 | [3] -0.031 | [4] 0.062 | [5] -0.054 | [6] 0.044 | [7] 0.12 | [8] 0.056 | [9] -0.051 | [10] 0.005

RBM10 isoform 5 (UniProt P98175)
inactive: [1] -0.004 | [2] -0.003 | [3] -0.023 | [4] 0.02 | [5] -0.017 | [6] 0.032 | [7] 0.015 | [8] -0.045 | [9] 0.016 | [10] -0.043

RGS10 (UniProt O43665)
inactive: [1] 0.019 | [2] 0.017 | [3] -0.006 | [4] 0.037 | [5] 0.014 | [6] -0.018 | [7] 0.032 | [8] -0.021 | [9] 0.008 | [10] 0.019

RFFL (UniProt Q8WZ73)
inactive: [1] 0.107 | [2] 0.044 | [3] -0.126 | [4] 0.119 | [5] -0.14 | [6] -0.092 | [7] -0.053 | [8] 0.062 | [9] 0.097 | [10] -0.068

RENBP (UniProt P51606)
inactive: [1] 0.057 | [2] 0.023 | [3] -0.005 | [4] 0.007 | [5] 0.011 | [6] -0.033 | [7] -0.065 | [8] 0.038 | [9] 0.053 | [10] -0.057
